{"source": "paper PMC7819943", "about": "“Rice protein-binding microarrays: a tool to detect cis-acting elements near promoter regions in rice”", "note": "The list shows a part of the results.", "data": [{"target": "T1, OsSMF1 (Oryza sativa, UniProt Q6ZLB0 1-436)", "T1 sequence": "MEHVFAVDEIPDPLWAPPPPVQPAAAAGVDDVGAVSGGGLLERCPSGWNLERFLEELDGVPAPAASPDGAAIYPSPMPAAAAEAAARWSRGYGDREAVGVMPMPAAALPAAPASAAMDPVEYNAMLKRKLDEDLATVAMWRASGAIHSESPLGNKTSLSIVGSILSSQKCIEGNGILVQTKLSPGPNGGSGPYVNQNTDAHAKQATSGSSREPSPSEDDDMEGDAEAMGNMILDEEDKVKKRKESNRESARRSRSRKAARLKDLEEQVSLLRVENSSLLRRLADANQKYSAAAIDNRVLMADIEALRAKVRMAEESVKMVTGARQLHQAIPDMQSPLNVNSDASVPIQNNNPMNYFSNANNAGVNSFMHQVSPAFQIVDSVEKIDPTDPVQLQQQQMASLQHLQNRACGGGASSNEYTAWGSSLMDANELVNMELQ", "assay": "protein-binding microarray (RPBM); PBS, 2% BSA, 51.3 ng/ul salmon testes DNA, 50 uM zinc acetate, 200 nM TF, 25 C, 1 h; high values mean tight binding", "details": "protein: recombinant; tags: N-terminal polyhistidine and DsRed monomer fusion (pET32a); chain copies: 2; label: CyDye5-dUTP incorporated in the synthesized complementary strand; 3' TTTTT single-stranded linker to array surface; dsDNA, one strand shown", "method_in_brief": "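Per-feature fluorescence intensity (arbitrary units), read on an Axon 4000B scanner, is the binding signal. Transcription factors carrying an N-terminal polyhistidine tag and DsRed fusion were expressed in E. coli BL21-CodonPlus and purified on Ni–NTA. A custom Agilent array, made double-stranded by primer extension with Cy5-dUTP and blocked with 2% BSA, was incubated with 200 nM protein in PBS, 2% BSA, salmon testes DNA and 50 µM zinc acetate at 25 °C for 1 h and then washed.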", "values": [{"sequence": "AGCGGGCCTCGCCAGCGCCGCATGCCGCCTCTGGCTCCGTCGGAGTCACCTAGTGCAG", "binding signal": "3620 fluorescence intensity (a.u.)"}, {"sequence": "TCGGCGCCGGAGTCAACCGTTTTCAGGACAGCATCGGCACCGGAGTCACCTAGTGCAG", "binding signal": "3730 fluorescence intensity (a.u.)"}, {"sequence": "TTGGCTCTGTTTACACGTATGATGCTTTGTCAGGTTGGAGCGGAGTCACCTAGTGCAG", "binding signal": "11300 fluorescence intensity (a.u.)"}, {"sequence": "CATAATTAATATCTAGTCCCAACTATCATACATATATGTACGGAGTCACCTAGTGCAG", "binding signal": "22900 fluorescence intensity (a.u.)"}, {"sequence": "TCGCATACATGAGCCGGTTGCGTTCTGCCCCGGTTGTTTGCGGAGTCACCTAGTGCAG", "binding signal": "4130 fluorescence intensity (a.u.)"}, {"sequence": "CAACCCCACAACCGTCAACTCCAGCTCGGCTTCTCCTCCTCGGAGTCACCTAGTGCAG", "binding signal": "4260 fluorescence intensity (a.u.)"}, {"sequence": "ACTTGGTCAAGACCACCACGTAAGCACCACGTAGGACAAACGGAGTCACCTAGTGCAG", "binding signal": "15600 fluorescence intensity (a.u.)"}, {"sequence": "AGCTTCGCACTGGGCACGTGTGCCTGTGTGTGGGAGTCAGCGGAGTCACCTAGTGCAG", "binding signal": "4070 fluorescence intensity (a.u.)"}, {"sequence": "TCGATGAATCTGTCCACGTCCCGTATTAAGTTTGTTTATTCGGAGTCACCTAGTGCAG", "binding signal": "6190 fluorescence intensity (a.u.)"}, {"sequence": "GAAACATTGCGTGCTTTCGCGCACCTGGTGTTATTTATTCCGGAGTCACCTAGTGCAG", "binding signal": "3540 fluorescence intensity (a.u.)"}, {"sequence": "CACAACCACAAGGTTGTCATTACCTCTATCATCGGTGTAACGGAGTCACCTAGTGCAG", "binding signal": "3380 fluorescence intensity (a.u.)"}, {"sequence": "GGCTGCCACGCCCGCGCCGCGCGCTTCGGCGCTGGCGCCGCGGAGTCACCTAGTGCAG", "binding signal": "3670 fluorescence intensity (a.u.)"}, {"sequence": "TAATTTAACTTTGATCAAAGTTAAAACGTGTTACTGGACGCGGAGTCACCTAGTGCAG", "binding signal": "11500 fluorescence intensity (a.u.)"}, {"sequence": "CATACACTATGGGTAGTCGTCATCGGACATTGGGTGCCGGCGGAGTCACCTAGTGCAG", "binding signal": "3790 fluorescence intensity (a.u.)"}, {"sequence": "GCGCTCGCACCACGTGGCTGGCGTCGCCTGGGCGCCCATCCGGAGTCACCTAGTGCAG", "binding signal": "10600 fluorescence intensity (a.u.)"}, {"sequence": "CCGCGAGTTCTGACGCAACTGATAAGTGATAACCAACCAACGGAGTCACCTAGTGCAG", "binding signal": "3310 fluorescence intensity (a.u.)"}, {"sequence": "ACAAACATTTGCCACTCCGCGCCACGTCACGCTAACTGACCGGAGTCACCTAGTGCAG", "binding signal": "13900 fluorescence intensity (a.u.)"}, {"sequence": "GAGCAATAGGGAAACACCTCACACCCGATGTTGGGTGTTGCGGAGTCACCTAGTGCAG", "binding signal": "4320 fluorescence intensity (a.u.)"}, {"sequence": "ACACGAACGTGACACCGTGTTGTGTCGACCACCACCGTCGCGGAGTCACCTAGTGCAG", "binding signal": "3600 fluorescence intensity (a.u.)"}, {"sequence": "ATTCCACCCCGACTTGCTGACCTCGACAGCACCTGACTTCCGGAGTCACCTAGTGCAG", "binding signal": "3720 fluorescence intensity (a.u.)"}, {"sequence": "CCAGTTTTGTCCCACGTGGCGGCTGGCTCAGCGTGGGACCCGGAGTCACCTAGTGCAG", "binding signal": "16800 fluorescence intensity (a.u.)"}, {"sequence": "AGGTCAAGTTCGAGTTCAGCTTCGCCGAGCAGGCGGCCAACGGAGTCACCTAGTGCAG", "binding signal": "29300 fluorescence intensity (a.u.)"}, {"sequence": "TTTCGCACCCTCCACCTCCCCTATTATAGCGTGTCGGACACGGAGTCACCTAGTGCAG", "binding signal": "4120 fluorescence intensity (a.u.)"}, {"sequence": "TTTTCTGTCGATCGGAATTGGTCATCTTTGGTTGGTTCAGCGGAGTCACCTAGTGCAG", "binding signal": "3580 fluorescence intensity (a.u.)"}, {"sequence": "GAACACTGGCATACATCGCCGATCAGGATGACGTGGGCAACGGAGTCACCTAGTGCAG", "binding signal": "11500 fluorescence intensity (a.u.)"}, {"sequence": "ATGGTACGTCGTCCGTATTTAAGTCAGCTTTTAAGTTCGTCGGAGTCACCTAGTGCAG", "binding signal": "3780 fluorescence intensity (a.u.)"}, {"sequence": "GGGGTAGTATATATAAAATCCAATTTGTCACGTGTCAACCCGGAGTCACCTAGTGCAG", "binding signal": "4420 fluorescence intensity (a.u.)"}, {"sequence": "AGTTCAGATTTGACATATACAGATTCTAGACATTACCAGTCGGAGTCACCTAGTGCAG", "binding signal": "20400 fluorescence intensity (a.u.)"}, {"sequence": "GCCTAATTACTCGTGCCGCTCTCCTCATTATGACGCCACCCGGAGTCACCTAGTGCAG", "binding signal": "3770 fluorescence intensity (a.u.)"}, {"sequence": "TAACCGTCTATGCATTCCAGTTGGTTCCGTTCGTCTTTTGCGGAGTCACCTAGTGCAG", "binding signal": "3160 fluorescence intensity (a.u.)"}, {"sequence": "TGAAAATCGCATACTAATTAGCTATTAGTCATGAGCTCTTCGGAGTCACCTAGTGCAG", "binding signal": "3590 fluorescence intensity (a.u.)"}, {"sequence": "TGGAAAGTGCGTAGTTGATACAGAATCCAGTCAGTTCCCACGGAGTCACCTAGTGCAG", "binding signal": "4780 fluorescence intensity (a.u.)"}, {"sequence": "GCGGTGACGTCCTCGCGCTCCCCGTCAGCGCCATCCACGTCGGAGTCACCTAGTGCAG", "binding signal": "10000 fluorescence intensity (a.u.)"}, {"sequence": "GCGCCTCTGTCCGCCTCCGCCGCTGCCCTCCGCCACCTCGCGGAGTCACCTAGTGCAG", "binding signal": "3530 fluorescence intensity (a.u.)"}, {"sequence": "CTCTATGGCCCCGTCACGTTCTCCGCCTTTTCCTTTCACACGGAGTCACCTAGTGCAG", "binding signal": "6530 fluorescence intensity (a.u.)"}, {"sequence": "TAGCAAATGGTGTTGACGATGATAGGCAACATTAGACGCTCGGAGTCACCTAGTGCAG", "binding signal": "3150 fluorescence intensity (a.u.)"}, {"sequence": "GGTCCCTAAACTTGTACTGCTGTGTCATCCCGGTCCCTAACGGAGTCACCTAGTGCAG", "binding signal": "5050 fluorescence intensity (a.u.)"}, {"sequence": "CTCTCCTACAATAGGATGGACTATGTGACGTAGCACAATGCGGAGTCACCTAGTGCAG", "binding signal": "7860 fluorescence intensity (a.u.)"}, {"sequence": "TAAGTAACTTAAACATTTGTGATGTGGATTTGGGATGTTACGGAGTCACCTAGTGCAG", "binding signal": "3190 fluorescence intensity (a.u.)"}, {"sequence": "GCTCTCAAGGCTGCTGATCGCTGACAGACCGACGAGCGCGCGGAGTCACCTAGTGCAG", "binding signal": "17900 fluorescence intensity (a.u.)"}, {"sequence": "CCACCAAAATATACACACTAGTATTCAAGATTAGTCATCACGGAGTCACCTAGTGCAG", "binding signal": "4850 fluorescence intensity (a.u.)"}, {"sequence": "TGCACGACAGTTTTGGTTGACGTGGCGTCTATGTGGCTAACGGAGTCACCTAGTGCAG", "binding signal": "25400 fluorescence intensity (a.u.)"}, {"sequence": "CTGCGATCCGTCCATCGTCTTCCTGTTCCATCGAGGAGTACGGAGTCACCTAGTGCAG", "binding signal": "3200 fluorescence intensity (a.u.)"}, {"sequence": "TGCAATCAAAGAAAATGGAATCTAGGTATCTTCATCTACCCGGAGTCACCTAGTGCAG", "binding signal": "4550 fluorescence intensity (a.u.)"}, {"sequence": "ACACACCCCGTGCCACGTCGGCCTCACACCCCTCAGGTTACGGAGTCACCTAGTGCAG", "binding signal": "22600 fluorescence intensity (a.u.)"}, {"sequence": "AGGAAGGTTATCTTAGTAGGTCATGTTCTTTGGAAACAAACGGAGTCACCTAGTGCAG", "binding signal": "3800 fluorescence intensity (a.u.)"}, {"sequence": "GACTGATCTGCCTAGTCGCATGTACACGGCGGATGCCGTACGGAGTCACCTAGTGCAG", "binding signal": "4020 fluorescence intensity (a.u.)"}, {"sequence": "TAGTCCATGGGCCACACCGGCGACACCGTCACACCTAATTCGGAGTCACCTAGTGCAG", "binding signal": "4150 fluorescence intensity (a.u.)"}, {"sequence": "TCCACATATAAGTGGTGAGGTGTCACGAATTATGACAATCCGGAGTCACCTAGTGCAG", "binding signal": "5010 fluorescence intensity (a.u.)"}, {"sequence": "CGGAGGCGGCGGTGAGCGAACGGCGGGTGCCACGTGCCCACGGAGTCACCTAGTGCAG", "binding signal": "10300 fluorescence intensity (a.u.)"}, {"sequence": "TGCAGCCGCCGACGCGGCGCGCCGACGCGATCTGAAACCCCGGAGTCACCTAGTGCAG", "binding signal": "3940 fluorescence intensity (a.u.)"}, {"sequence": "GCTCGAGATCCGGTACGTCATTGCTCAGGGGACCTACGGCCGGAGTCACCTAGTGCAG", "binding signal": "4350 fluorescence intensity (a.u.)"}, {"sequence": "CAAACCAAGAAGCTGATGCACTGAAGAAGTCCAGACGGCCCGGAGTCACCTAGTGCAG", "binding signal": "3230 fluorescence intensity (a.u.)"}, {"sequence": "ATGGTCCCACCTGTCATACACACATTGCGTCTTGGAGTTCCGGAGTCACCTAGTGCAG", "binding signal": "3560 fluorescence intensity (a.u.)"}]}]}
